Assay results published in patent US8344113B2, “Diagnostic tumor markers, drug screening for tumorigenesis inhibition, and compositions and methods for treatment of cancer” (Minerva Biotechnologies Corporation, priority 2000, dated 2013).
For at least one compound, name, drawing or mass did not settle the structure.

Amino acid sequences for entries named in this document (tags omitted). A change or cut given only in a name is not applied to a line headed by its entry.
UniProt P15941: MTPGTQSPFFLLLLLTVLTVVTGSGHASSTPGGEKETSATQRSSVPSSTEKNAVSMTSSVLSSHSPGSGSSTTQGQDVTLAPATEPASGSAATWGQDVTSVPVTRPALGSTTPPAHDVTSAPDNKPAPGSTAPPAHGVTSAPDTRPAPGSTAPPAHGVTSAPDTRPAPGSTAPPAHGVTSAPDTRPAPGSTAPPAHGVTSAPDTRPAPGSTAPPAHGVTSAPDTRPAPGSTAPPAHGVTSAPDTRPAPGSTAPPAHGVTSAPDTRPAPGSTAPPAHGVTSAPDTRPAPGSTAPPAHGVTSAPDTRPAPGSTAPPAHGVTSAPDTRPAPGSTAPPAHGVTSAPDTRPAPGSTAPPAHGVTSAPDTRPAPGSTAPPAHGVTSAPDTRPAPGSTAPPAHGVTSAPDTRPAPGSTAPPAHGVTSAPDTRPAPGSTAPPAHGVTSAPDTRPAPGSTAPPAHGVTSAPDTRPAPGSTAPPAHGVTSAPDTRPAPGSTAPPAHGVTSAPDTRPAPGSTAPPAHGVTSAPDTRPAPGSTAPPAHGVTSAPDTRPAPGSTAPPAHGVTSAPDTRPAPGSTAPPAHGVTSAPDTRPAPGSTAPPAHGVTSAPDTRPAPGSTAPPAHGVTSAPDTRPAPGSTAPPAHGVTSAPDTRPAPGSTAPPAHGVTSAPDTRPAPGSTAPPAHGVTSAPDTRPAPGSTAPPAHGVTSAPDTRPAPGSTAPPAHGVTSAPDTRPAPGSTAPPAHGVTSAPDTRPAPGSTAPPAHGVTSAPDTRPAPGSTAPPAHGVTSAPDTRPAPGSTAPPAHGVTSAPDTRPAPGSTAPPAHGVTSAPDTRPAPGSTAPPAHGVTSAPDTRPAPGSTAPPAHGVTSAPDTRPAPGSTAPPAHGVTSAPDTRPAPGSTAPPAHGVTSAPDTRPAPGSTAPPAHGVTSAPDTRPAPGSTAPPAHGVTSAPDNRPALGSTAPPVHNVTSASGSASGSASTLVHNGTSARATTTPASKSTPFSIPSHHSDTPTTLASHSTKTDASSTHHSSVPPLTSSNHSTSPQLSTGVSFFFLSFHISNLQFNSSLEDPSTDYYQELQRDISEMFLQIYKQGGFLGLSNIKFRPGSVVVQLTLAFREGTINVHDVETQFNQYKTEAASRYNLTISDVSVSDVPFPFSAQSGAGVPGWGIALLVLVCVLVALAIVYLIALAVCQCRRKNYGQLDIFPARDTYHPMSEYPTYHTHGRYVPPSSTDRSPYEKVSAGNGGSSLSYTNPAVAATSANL

Columns and labels:
[1] = molecular target: T1, MGFR portion of the MUC1 receptor and its activating ligand(s) (Homo sapiens, UniProt P15941, R1131P); assay: Colloid-based color-change drug screening assay (His-PSMGFR colloids plus T47D cell lysate); type: binding; settings: final drug concentration approximately 100 μM
T1 construct: made in house; host or cells: chemical synthesis (synthetic peptide)
T1 sequence (P15941 with tags, fused parts or gaps R1131P): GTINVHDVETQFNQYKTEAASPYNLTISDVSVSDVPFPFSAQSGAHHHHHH
Description: In a typical example, 1.5 ml of commercially available gold colloid (Auro Dye by Amersham) were pelleted by centrifugation in a microfuge on high for 10 minutes. The pellet was resuspended in 100 μL of the storage buffer (sodium citrate and tween-20). 100 μL of a dimethyl formamide (DMF) solution containing thiols. Following a 3-hour incubation in the thiol solution, the colloids were pelleted and the supernatant discarded. They were then heat cycled in 100 μL of 400 μM tri-ethylene glycol-terminated thiol in DMF for 2 minutes at 55° C., 2 minutes at 37° C., 1 minute at 55° C., 2 minutes at 37° C., then room temperature for 10 minutes. Heat cycling results in the elimination of any species that are not in the lowest energy confirmation, resulting in a stable, close-packed, self-assembled monolayer. Heat cycling can be carried out with any of a wide variety of self-assembled monolayer-forming species. The colloids were then pelleted and 100 μL 100 mM NaCl phosphate buffer were added. The colloids were then diluted 1:1 with 180 μM NiSO4 in the colloid storage buffer. […]
Colloid aggregation can be sensitively detected by monitoring color change of colloid particles which are initially disperse in suspension. […]

T47D cells = assay: Cell proliferation assay, MUC1 tumor cells treated with drug candidates; type: cell-based, human; settings: T47D versus K293, 48 hours
Description: T47D cells, mammary carcinoma cells known to overexpress MUC1, were grown in the wells of an ELISA plate along with K293 cells, human embryonic kidney cells which will serve as the negative control. 100 μl cells in growth media were added to the wells of an ELISA plate and the cells were allowed to adhere overnight. The number of cells in each well on the plate were then counted and recorded. 1 μl of a drug candidate in DMSO was then added to each well of both the T47D cells and the K293 cells. 1 μl DMSO alone was added to control wells. Each well was repeated in triplet. The cells were allowed to grow for 48 hours, the normal doubling time for these cell lines. The number of cells in each well was again counted and recorded. The percent cell growth over this 48-hour period was calculated, and the percent cell growth for wells containing a drug candidate versus DMSO were compared. […] Cell growth in the presence of Etomoxir was […] for T47D cells and 94% for control cells (K293); Cell growth in the presence of L-alpha-methyl-DOPA was 20% for T47D cells and 110% for control cells (K293); Cell growth in the presence of Fusaric acid was 27.7% for T47D cells, and 106.7% for control cells (K293); Cell growth in the absence of any drug (but with an equivalent amount of DMSO added) was 91.3% for T47D cells, and 106.2% for control cells (K293).

Compound: CCCCc1ccc(C(=O)O)nc1 [Fusaric acid]
- Interruption of the interaction of MGFR with its ligand(s) (colloid solution stays pink) [1]: interrupt the interaction of MGFR with its ligand(s)
- Selective inhibition of proliferation of MUC1-expressing tumor cells over control cells (T47D cells): selectively inhibited proliferation of the MUC1-expressing tumor cells over K293 negative control cells
